Assay: Steroid concentrations in charcoal-stripped follicular fluid by LC-MS/MS
Parameters: species or system human
For `C[C@]12CCC(=O)C=C1CC[C@@H]1[C@@H]2CC[C@]2(C)C(=O)CC[C@@H]12` [androstenedione], the “concentration in charcoal-stripped follicular fluid (sFF)” value (shortened to “concentration”) was 0.365 nM. In the case of `C[C@]12CC[C@@H]3c4ccc(O)cc4CC[C@H]3[C@@H]1CC[C@@H]2O` [estradiol], the “concentration” value was 54 nM. With `CC(=O)[C@H]1CC[C@H]2[C@@H]3CCC4=CC(=O)CC[C@]4(C)[C@H]3CC[C@]12C` [progesterone] the “concentration” value was 262 nM. In the case of `C[C@]12CC[C@H]3[C@@H](CCC4=CC(=O)CC[C@@]43C)[C@@H]1CC[C@@H]2O` [testosterone], the “concentration” value was 0.32 nM.
